This is one part of the list.
What was measured:
Assay in all cases: log2 fold change, soluble protein after heating vs DMSO (PISA); higher = thermal stabilisation; K562 lysate, 10 uM; active = over 0.2 and 3.5 SD of the protein, either way, in both replicates (recomputed)
erlotinib = compound: C#Cc1cccc(Nc2ncnc3cc(OCCOC)c(OCCOC)cc23)c1 [erlotinib]
In short: (§1)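 A 30 min treatment with 10 μM compound was applied to crude K562 extract at 1 mg/mL protein in PBS pH 7.4 with 1 mM MgCl2. Heating for 3 min spanned 48°C-58°C, after which aliquots were pooled, adjusted to 0.5% NP-40 at 4°C and spun at 21,000xg for 90 min. TMTpro 16plex LC-MS/MS of the supernatant, with channel sums equalised, gave values recorded as log-two fold change in thermal stability against solvent controls, from duplicates.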

Sequences of proteins named here, by UniProt entry; tags and fusion partners are left off. A change or cut given only in a name is not applied to a line headed by its entry.
UniProt Q6PK04: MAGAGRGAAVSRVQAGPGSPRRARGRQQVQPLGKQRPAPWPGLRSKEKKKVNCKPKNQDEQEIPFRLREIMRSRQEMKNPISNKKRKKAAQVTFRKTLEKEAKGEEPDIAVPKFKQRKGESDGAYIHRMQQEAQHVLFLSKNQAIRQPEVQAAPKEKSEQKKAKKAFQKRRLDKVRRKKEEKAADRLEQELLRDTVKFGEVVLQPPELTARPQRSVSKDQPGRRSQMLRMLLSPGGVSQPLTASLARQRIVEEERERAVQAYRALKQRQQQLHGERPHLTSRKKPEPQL
UniProt Q99832: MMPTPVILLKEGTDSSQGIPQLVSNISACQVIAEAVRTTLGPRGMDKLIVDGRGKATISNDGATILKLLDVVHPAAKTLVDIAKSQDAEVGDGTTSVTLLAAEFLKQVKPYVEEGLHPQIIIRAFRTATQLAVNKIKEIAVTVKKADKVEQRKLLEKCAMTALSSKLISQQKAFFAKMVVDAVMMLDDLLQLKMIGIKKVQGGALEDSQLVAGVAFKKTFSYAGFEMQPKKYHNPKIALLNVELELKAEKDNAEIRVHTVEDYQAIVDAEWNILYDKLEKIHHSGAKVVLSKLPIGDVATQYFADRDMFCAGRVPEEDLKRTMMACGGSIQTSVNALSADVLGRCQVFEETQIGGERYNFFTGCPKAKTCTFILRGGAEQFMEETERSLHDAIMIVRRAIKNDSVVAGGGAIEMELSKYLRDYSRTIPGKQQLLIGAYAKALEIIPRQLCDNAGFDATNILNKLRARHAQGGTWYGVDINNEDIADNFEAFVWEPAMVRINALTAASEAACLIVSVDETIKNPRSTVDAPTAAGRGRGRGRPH
UniProt P19256, whole entry, looked up: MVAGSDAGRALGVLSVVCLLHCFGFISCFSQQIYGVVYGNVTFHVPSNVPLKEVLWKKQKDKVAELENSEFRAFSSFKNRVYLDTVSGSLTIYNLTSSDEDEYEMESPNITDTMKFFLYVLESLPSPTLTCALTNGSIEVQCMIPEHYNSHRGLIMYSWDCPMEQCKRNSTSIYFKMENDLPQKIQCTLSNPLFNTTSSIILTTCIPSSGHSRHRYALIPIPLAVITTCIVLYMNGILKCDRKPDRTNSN
UniProt Q6PII3: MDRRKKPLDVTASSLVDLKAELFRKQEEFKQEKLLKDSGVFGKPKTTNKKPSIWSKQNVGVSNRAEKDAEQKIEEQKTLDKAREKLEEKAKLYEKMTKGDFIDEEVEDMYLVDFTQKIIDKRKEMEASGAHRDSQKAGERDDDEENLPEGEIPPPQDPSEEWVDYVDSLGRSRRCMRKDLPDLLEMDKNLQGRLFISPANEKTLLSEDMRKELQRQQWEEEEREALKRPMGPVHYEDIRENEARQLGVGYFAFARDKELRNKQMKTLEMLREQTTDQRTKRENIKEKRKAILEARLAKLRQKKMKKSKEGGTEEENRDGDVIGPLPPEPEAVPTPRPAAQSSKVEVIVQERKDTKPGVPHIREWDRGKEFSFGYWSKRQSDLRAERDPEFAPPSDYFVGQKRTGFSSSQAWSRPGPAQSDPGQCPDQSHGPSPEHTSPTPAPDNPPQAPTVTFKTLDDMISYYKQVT
UniProt Q9BUN5: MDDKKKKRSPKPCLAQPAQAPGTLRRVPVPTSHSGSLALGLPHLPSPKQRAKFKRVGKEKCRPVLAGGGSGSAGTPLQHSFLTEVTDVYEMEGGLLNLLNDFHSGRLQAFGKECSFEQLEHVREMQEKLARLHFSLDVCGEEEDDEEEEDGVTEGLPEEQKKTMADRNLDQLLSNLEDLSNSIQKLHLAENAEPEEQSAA
UniProt Q7Z6B0: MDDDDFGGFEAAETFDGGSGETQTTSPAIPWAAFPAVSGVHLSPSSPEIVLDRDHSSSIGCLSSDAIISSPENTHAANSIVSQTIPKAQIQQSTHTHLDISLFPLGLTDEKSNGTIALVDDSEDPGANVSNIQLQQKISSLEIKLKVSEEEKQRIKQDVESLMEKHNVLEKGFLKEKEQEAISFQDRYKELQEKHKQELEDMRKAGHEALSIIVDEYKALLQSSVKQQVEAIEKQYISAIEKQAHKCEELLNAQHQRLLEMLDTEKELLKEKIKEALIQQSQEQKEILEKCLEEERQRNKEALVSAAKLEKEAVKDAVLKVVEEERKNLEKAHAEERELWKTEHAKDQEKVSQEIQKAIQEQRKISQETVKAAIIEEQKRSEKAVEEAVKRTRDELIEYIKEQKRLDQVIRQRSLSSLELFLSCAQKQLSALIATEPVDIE
UniProt Q8IX12: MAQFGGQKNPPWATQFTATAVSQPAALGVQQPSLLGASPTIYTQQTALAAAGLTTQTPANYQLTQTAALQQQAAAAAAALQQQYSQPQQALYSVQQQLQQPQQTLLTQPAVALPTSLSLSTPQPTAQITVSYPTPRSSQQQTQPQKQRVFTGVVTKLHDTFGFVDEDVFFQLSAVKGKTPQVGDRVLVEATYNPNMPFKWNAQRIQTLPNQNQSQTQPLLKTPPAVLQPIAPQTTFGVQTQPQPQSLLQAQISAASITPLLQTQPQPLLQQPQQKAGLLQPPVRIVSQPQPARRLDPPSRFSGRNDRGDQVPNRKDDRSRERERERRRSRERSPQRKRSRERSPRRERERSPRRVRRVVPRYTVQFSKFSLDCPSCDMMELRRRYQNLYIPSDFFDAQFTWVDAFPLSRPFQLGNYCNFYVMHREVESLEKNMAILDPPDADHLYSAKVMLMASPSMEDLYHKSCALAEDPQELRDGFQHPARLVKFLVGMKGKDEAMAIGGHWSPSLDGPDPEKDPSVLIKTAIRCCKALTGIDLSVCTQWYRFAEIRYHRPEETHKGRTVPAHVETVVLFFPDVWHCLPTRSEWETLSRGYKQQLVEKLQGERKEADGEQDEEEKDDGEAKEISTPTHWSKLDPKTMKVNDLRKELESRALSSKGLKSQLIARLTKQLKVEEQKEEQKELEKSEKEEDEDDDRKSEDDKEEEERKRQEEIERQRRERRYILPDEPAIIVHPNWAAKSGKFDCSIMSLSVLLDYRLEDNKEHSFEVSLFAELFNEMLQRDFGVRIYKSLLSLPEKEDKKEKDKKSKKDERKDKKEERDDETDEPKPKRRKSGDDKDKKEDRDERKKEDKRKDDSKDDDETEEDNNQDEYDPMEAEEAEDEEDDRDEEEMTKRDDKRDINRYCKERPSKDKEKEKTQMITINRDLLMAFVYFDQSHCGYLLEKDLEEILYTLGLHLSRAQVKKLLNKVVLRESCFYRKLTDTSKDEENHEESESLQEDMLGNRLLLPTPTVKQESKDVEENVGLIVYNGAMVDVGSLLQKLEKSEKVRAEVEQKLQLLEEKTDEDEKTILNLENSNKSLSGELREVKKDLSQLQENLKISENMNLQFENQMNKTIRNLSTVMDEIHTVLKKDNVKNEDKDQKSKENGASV
UniProt Q9Y2G2: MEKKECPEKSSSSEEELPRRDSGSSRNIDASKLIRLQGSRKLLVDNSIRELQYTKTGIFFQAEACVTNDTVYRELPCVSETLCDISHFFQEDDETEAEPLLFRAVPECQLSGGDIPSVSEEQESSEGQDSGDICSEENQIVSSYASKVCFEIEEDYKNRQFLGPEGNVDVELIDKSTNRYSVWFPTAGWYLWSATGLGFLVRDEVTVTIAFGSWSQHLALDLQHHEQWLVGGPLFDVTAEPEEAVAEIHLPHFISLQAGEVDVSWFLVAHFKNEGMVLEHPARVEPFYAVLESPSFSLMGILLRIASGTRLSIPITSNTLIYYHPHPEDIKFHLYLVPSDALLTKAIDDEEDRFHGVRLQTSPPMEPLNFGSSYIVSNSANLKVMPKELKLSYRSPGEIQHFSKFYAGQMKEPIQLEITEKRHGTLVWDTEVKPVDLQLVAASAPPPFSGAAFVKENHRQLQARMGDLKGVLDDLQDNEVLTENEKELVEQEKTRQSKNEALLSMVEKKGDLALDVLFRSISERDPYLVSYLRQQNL
UniProt Q96NT0: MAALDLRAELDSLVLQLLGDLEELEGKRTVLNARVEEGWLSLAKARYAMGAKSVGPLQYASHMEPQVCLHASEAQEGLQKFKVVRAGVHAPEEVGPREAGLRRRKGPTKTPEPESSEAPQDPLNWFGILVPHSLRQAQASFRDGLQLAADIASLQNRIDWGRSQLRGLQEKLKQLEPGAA
UniProt P08174: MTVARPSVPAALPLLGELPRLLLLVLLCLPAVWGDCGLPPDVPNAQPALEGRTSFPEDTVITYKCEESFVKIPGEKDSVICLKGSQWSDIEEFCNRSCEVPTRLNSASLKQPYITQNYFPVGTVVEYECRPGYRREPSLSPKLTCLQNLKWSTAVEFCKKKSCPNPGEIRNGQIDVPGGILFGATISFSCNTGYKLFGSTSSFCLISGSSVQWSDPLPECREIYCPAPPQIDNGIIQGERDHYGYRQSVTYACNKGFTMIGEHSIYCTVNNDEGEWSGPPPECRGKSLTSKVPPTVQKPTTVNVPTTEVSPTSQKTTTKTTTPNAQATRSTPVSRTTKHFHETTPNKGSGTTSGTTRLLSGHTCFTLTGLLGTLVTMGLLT
UniProt Q9BSQ5: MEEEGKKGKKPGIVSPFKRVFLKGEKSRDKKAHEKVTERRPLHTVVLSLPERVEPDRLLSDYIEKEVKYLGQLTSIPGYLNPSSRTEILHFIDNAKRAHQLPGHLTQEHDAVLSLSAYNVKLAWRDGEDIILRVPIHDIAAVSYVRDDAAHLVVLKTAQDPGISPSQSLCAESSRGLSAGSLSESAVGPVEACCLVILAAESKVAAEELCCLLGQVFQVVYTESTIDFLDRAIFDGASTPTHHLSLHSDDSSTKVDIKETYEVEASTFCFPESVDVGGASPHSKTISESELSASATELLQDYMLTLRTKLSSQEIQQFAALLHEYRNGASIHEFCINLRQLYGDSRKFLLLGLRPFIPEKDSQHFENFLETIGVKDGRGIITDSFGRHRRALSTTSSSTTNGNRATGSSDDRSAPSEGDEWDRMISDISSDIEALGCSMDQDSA
UniProt P48509: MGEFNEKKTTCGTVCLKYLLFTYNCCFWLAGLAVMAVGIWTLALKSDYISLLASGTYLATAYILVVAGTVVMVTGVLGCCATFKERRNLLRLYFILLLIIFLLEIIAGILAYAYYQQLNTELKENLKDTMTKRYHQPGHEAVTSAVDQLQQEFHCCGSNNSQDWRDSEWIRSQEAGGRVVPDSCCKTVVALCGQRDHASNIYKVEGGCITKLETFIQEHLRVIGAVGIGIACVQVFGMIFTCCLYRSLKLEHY
UniProt Q15834: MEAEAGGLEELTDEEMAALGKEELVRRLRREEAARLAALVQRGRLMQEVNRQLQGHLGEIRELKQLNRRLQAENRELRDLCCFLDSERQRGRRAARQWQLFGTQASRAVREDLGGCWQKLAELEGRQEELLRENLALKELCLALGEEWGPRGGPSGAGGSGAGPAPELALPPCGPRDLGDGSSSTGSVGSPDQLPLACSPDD
UniProt P60033: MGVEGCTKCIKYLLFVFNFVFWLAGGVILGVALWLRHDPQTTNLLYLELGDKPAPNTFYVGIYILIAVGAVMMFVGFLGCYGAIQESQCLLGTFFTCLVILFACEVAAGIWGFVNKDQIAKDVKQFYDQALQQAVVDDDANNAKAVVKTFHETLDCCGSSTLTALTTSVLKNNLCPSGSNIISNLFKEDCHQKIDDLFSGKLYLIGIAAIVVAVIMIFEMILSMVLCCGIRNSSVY
UniProt Q13191, whole entry, looked up: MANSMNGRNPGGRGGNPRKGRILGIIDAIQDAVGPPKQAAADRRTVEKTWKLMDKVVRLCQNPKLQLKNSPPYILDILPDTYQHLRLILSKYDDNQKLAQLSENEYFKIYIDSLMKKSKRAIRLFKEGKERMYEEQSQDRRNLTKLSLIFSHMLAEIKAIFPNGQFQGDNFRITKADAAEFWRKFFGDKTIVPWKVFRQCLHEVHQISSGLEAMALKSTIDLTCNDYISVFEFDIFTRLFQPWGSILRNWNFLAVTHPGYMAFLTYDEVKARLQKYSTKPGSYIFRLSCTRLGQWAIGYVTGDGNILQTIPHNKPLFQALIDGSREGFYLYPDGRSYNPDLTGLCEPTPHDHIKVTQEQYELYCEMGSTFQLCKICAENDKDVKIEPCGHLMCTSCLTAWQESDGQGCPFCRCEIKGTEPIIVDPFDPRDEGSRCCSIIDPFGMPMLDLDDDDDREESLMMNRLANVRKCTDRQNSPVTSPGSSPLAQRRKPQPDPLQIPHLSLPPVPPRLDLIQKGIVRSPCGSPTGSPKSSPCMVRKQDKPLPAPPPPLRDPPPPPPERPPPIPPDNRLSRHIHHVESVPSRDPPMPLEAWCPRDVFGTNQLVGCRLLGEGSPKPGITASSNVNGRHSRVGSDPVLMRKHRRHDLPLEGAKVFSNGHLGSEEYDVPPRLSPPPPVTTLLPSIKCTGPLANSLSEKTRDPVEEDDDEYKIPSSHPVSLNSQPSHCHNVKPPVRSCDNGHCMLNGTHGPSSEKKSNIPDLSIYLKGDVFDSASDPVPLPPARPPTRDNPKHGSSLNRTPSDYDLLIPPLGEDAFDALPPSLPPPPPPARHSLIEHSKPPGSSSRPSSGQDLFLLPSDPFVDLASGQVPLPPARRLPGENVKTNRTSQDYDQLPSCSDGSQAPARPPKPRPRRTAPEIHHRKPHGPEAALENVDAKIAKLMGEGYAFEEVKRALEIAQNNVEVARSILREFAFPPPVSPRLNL

[1] = compound: C/C(=N\NC(=O)C1=CC(=CC=C1)S(=O)(=O)N2CCOCC2)/C3=C(C=CC(=C3)Cl)O
In short: as §1

[2] = compound: C1=CC(=CC=C1C2=NC3=C(N2)C=C(C=C3)C(=O)N)OC4=CC=C(C=C4)Cl
In short: as §1

[3] = compound: C1=CC2=C(C=CC(=C2)/C=C\3/C(=O)NC(=NCC4=CC=CS4)S3)N=C1
In short: as §1

[4] = compound: C1=CC2=NC=CN=C2C=C1/C=C/3\C(=O)NC(=O)S3
In short: as §1

[5] = compound: C1=CC=C(C=C1)C2=NC(=C(N2)C3=CC=NC=C3)C4=CC(=C(C=C4)Cl)O
In short: as §1

[6] = compound: C1=CC=C2C(=C1)C3=NNC4=CC=CC(=C43)C2=O
In short: as §1

[7] = compound: C1CCN(C1)C(=O)NC2=CC=CC(=C2)NC3=NC=C(C(=N3)NCCC4=CN=CN4)Br
In short: as §1

[8] = compound: C1CN(CCC1(CC2=CC=C(C=C2)Cl)N)C3=NC=NC4=C3C=CN4
In short: as §1

IRAK-1-4 Inhibitor I = compound: C1COCCN1CCN2C3=CC=CC=C3N=C2NC(=O)C4=CC(=CC=C4)[N+](=O)[O-] [IRAK-1-4 Inhibitor I]
In short: as §1

Measured: log2 fold change

CCDC137 (UniProt Q6PK04)
inactive: erlotinib -0.056 | [1] -0.261 | [2] -0.041 | [3] 0.045 | [4] -0.039 | [5] -0.029 | [6] 0.018 | [7] 0 | [8] 0.011 | IRAK-1-4 Inhibitor I 0.033

CCT7 (UniProt Q99832)
inactive: erlotinib -0.016 | [1] 0.042 | [2] 0.029 | [3] -0.013 | [4] -0.002 | [5] 0 | [6] 0.066 | [7] -0.001 | [8] 0.018 | IRAK-1-4 Inhibitor I 0.013

CD58 (UniProt P19256)
inactive: erlotinib -0.077 | [1] 0.019 | [2] -0.014 | [3] 0.007 | [4] 0.008 | [5] -0.008 | [6] 0.011 | [7] 0.002 | [8] 0.006 | IRAK-1-4 Inhibitor I -0.059

Random excerpt: two records from the list.
CCDC137 (UniProt Q6PK04)
inactive: erlotinib -0.056 | [1] -0.261 | [2] -0.041 | [3] 0.045 | [4] -0.039 | [5] -0.029 | [6] 0.018 | [7] 0 | [8] 0.011 | IRAK-1-4 Inhibitor I 0.033

CCT7 (UniProt Q99832)
inactive: erlotinib -0.016 | [1] 0.042 | [2] 0.029 | [3] -0.013 | [4] -0.002 | [5] 0 | [6] 0.066 | [7] -0.001 | [8] 0.018 | IRAK-1-4 Inhibitor I 0.013

Next part

CC2D1A (UniProt Q6P1N0)
inactive: erlotinib -0.017 | [1] 0.247 | [2] -0.002 | [3] 0 | [4] -0.04 | [5] -0.01 | [6] -0.016 | [7] -0.038 | [8] 0.028 | IRAK-1-4 Inhibitor I -0.012

CCDC174 (UniProt Q6PII3)
inactive: erlotinib -0.009 | [1] -0.001 | [2] -0.008 | [3] 0.01 | [4] -0.014 | [5] -0.015 | [6] 0.016 | [7] -0.061 | [8] -0.017 | IRAK-1-4 Inhibitor I 0.001

CASP8 isoform 9 (UniProt Q14790)
inactive: erlotinib 0.015 | [1] 0.171 | [2] 0.032 | [3] -0.036 | [4] 0.032 | [5] 0.006 | [6] 0.004 | [7] 0.006 | [8] 0.027 | IRAK-1-4 Inhibitor I -0.009

CCDC28B (UniProt Q9BUN5)
inactive: erlotinib -0.019 | [1] -0.005 | [2] 0.143 | [3] 0.06 | [4] 0.027 | [5] 0.023 | [6] -0.07 | [7] 0.114 | [8] -0.033 | IRAK-1-4 Inhibitor I 0.12

CCZ1 (UniProt P86791)
inactive: erlotinib 0.015 | [1] -0.049 | [2] -0.009 | [3] -0.027 | [4] -0.012 | [5] -0.018 | [6] -0.004 | [7] -0.01 | [8] 0.032 | IRAK-1-4 Inhibitor I -0.002

CCDC91 (UniProt Q7Z6B0)
inactive: erlotinib -0.004 | [1] 0.014 | [2] -0.004 | [3] -0.019 | [4] -0.026 | [5] 0.026 | [6] 0.006 | [7] -0.002 | [8] 0.007 | IRAK-1-4 Inhibitor I 0.006

CCNL2 (UniProt Q96S94)
inactive: erlotinib -0.002 | [1] -0.049 | [2] -0.006 | [3] -0.042 | [4] 0.069 | [5] 0.037 | [6] -0.121 | [7] 0.055 | [8] -0.07 | IRAK-1-4 Inhibitor I 0.01

CCAR1 (UniProt Q8IX12)
inactive: erlotinib -0.009 | [1] -0.053 | [2] 0.015 | [3] 0.006 | [4] 0.005 | [5] -0.009 | [6] -0.003 | [7] -0.018 | [8] 0.001 | IRAK-1-4 Inhibitor I 0.023

CD320 (UniProt Q9NPF0)
inactive: erlotinib -0.05 | [1] -0.047 | [2] -0.015 | [3] -0.031 | [4] 0.037 | [5] 0.103 | [6] 0.019 | [7] -0.064 | [8] 0.012 | IRAK-1-4 Inhibitor I -0.016

CCNB1 (UniProt P14635)
inactive: erlotinib -0.013 | [1] 0.008 | [2] 0.032 | [3] -0.019 | [4] 0.01 | [5] 0.001 | [6] -0.11 | [7] -0.034 | [8] 0.026 | IRAK-1-4 Inhibitor I 0.01

CARD8 isoform 5 (UniProt Q9Y2G2)
inactive: erlotinib -0.062 | [1] 0.156 | [2] 0.039 | [3] -0.076 | [4] -0.104 | [5] 0.019 | [6] 0.008 | [7] 0.012 | [8] 0.063 | IRAK-1-4 Inhibitor I 0.068

CASP10 isoform 4 (UniProt Q92851)
inactive: erlotinib 0.008 | [1] 0.033 | [2] -0.01 | [3] -0.016 | [4] -0.001 | [5] 0.039 | [6] -0.006 | [7] 0.002 | [8] 0.012 | IRAK-1-4 Inhibitor I -0.018

CCSMST1 (UniProt Q4G0I0)
inactive: erlotinib 0.08 | [1] -0.092 | [2] 0.124 | [3] 0.002 | [4] -0.023 | [5] -0.017 | [6] 0.027 | [7] 0.035 | [8] 0.074 | IRAK-1-4 Inhibitor I 0.041

CCDC115 (UniProt Q96NT0)
inactive: erlotinib 0.023 | [1] 0.008 | [2] -0.012 | [3] 0.041 | [4] -0.032 | [5] -0.022 | [6] -0.074 | [7] 0.042 | [8] 0.011 | IRAK-1-4 Inhibitor I 0.014

CD55 isoform 7 (UniProt P08174)
inactive: erlotinib 0.003 | [1] 0.007 | [2] 0.11 | [3] -0.004 | [4] -0.026 | [5] -0.018 | [6] -0.013 | [7] 0.077 | [8] 0.099 | IRAK-1-4 Inhibitor I 0.036

CCT3 (UniProt P49368)
inactive: erlotinib -0.015 | [1] -0.003 | [2] 0.018 | [3] -0.012 | [4] -0.012 | [5] 0.004 | [6] 0.036 | [7] 0.014 | [8] -0.014 | IRAK-1-4 Inhibitor I -0.004

CCM2 isoform 2 (UniProt Q9BSQ5)
inactive: erlotinib -0.002 | [1] -0.163 | [2] -0.04 | [3] -0.03 | [4] -0.029 | [5] -0.054 | [6] -0.055 | [7] 0 | [8] 0.012 | IRAK-1-4 Inhibitor I 0.042

CD2BP2 (UniProt O95400)
inactive: erlotinib 0.024 | [1] -0.022 | [2] 0.005 | [3] -0.008 | [4] -0.016 | [5] 0.001 | [6] 0.038 | [7] 0.015 | [8] -0.008 | IRAK-1-4 Inhibitor I -0.007

CD151 (UniProt P48509)
inactive: erlotinib -0.038 | [1] -0.042 | [2] -0.041 | [3] -0.061 | [4] 0.085 | [5] 0.054 | [6] 0.117 | [7] 0 | [8] -0.268 | IRAK-1-4 Inhibitor I 0.036

CCDC85B (UniProt Q15834)
inactive: erlotinib -0.126 | [1] 0.22 | [2] -0.066 | [3] -0.022 | [4] -0.001 | [5] -0.058 | [6] 0.015 | [7] -0.361 | [8] -0.203 | IRAK-1-4 Inhibitor I 0.011

CAVIN2 (UniProt O95810)
inactive: erlotinib -0.017 | [1] -0.049 | [2] 0.02 | [3] 0.02 | [4] -0.02 | [5] -0.005 | [6] 0.012 | [7] -0.018 | [8] -0.031 | IRAK-1-4 Inhibitor I -0.007

CD81 (UniProt P60033)
inactive: erlotinib 0.005 | [1] -0.061 | [2] 0.022 | [3] 0.042 | [4] 0.051 | [5] -0.031 | [6] -0.106 | [7] 0.002 | [8] 0.093 | IRAK-1-4 Inhibitor I -0.017

CBLB (UniProt Q13191)
inactive: erlotinib 0.018 | [1] -0.015 | [2] 0.01 | [3] 0.089 | [4] -0.018 | [5] 0.169 | [6] 0 | [7] 0.002 | [8] 0.083 | IRAK-1-4 Inhibitor I -0.072

CCNT1 (UniProt O60563)
inactive: erlotinib 0.001 | [1] 0.045 | [2] 0.073 | [3] 0.021 | [4] -0.006 | [5] 0.041 | [6] 0.009 | [7] 0.01 | [8] 0.03 | IRAK-1-4 Inhibitor I -0.003
